Experimental data: patent US20190309036A1
No constants are given. Whether binding was seen depends on the method and setting. Binding seen in cells or lysates may run through a third protein. Some entries that bind do so weakly or less than the wild type.

Sequences of proteins named here, by UniProt entry; tags and fusion partners are left off. A change or cut given only in a name is not applied to a line headed by its entry.
UniProt P20701: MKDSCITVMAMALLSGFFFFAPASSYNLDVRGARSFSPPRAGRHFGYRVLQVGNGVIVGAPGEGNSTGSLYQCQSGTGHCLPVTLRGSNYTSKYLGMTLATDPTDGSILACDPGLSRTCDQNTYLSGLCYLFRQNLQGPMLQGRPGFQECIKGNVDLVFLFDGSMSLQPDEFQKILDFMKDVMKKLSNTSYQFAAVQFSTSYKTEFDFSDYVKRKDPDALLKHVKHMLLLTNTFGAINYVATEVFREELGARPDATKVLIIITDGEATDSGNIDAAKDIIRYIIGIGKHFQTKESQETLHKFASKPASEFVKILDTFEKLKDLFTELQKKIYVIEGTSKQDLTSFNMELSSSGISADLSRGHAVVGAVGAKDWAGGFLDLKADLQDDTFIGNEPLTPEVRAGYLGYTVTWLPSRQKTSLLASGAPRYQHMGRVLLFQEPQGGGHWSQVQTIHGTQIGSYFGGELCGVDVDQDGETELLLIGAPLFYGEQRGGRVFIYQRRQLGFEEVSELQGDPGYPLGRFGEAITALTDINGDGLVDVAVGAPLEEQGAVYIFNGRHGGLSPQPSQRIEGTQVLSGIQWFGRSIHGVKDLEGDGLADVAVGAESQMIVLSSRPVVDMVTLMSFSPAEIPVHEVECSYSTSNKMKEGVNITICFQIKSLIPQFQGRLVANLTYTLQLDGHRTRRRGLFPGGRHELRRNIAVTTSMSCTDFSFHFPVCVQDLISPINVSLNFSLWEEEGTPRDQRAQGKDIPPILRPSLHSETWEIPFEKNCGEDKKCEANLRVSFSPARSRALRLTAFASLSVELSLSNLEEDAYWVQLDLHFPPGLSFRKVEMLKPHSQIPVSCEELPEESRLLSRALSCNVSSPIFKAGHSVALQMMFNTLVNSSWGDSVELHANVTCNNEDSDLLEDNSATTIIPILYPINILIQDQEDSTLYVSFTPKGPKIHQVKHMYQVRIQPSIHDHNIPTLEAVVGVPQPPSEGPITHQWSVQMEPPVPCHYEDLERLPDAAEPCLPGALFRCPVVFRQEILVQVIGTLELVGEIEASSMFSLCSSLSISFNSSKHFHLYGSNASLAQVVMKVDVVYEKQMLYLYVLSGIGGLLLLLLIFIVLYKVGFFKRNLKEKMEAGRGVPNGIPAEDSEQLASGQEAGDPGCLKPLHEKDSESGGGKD
UniProt P05107: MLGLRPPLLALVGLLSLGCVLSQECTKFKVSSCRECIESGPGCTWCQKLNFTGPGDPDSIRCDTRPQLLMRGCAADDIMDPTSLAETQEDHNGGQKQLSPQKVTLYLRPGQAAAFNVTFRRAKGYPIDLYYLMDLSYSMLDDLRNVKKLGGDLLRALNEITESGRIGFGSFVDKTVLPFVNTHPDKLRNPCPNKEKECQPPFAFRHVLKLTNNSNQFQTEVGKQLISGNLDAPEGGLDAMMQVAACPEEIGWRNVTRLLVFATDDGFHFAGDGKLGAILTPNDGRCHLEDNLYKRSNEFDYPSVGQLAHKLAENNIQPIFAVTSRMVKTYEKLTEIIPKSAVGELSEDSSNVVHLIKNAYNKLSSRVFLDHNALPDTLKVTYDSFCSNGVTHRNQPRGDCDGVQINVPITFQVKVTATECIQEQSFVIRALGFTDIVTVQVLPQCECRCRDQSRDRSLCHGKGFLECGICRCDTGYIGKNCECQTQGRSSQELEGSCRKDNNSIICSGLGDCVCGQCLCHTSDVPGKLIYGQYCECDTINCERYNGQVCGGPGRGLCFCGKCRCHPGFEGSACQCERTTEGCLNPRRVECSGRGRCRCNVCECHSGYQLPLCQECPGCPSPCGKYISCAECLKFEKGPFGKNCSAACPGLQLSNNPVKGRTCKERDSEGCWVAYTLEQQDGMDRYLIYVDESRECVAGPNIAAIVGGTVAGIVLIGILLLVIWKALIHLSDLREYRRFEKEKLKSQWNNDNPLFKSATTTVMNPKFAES
UniProt P37802: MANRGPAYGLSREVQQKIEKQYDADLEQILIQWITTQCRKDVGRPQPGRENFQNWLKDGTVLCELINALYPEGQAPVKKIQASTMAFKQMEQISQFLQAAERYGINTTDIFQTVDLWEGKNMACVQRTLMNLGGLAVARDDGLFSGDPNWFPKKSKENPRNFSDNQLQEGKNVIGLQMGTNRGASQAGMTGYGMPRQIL

Columns and labels:
LFA-1 (human) (human) [1] = molecular target: T1, LFA-1 (human) (human) (UniProt P20701+P05107); assay: co-immunoprecipitation with TS1/18 (anti-LFA-1) and Western blot
LFA-1 (human) (human) [2] = molecular target: T1, LFA-1 (human) (human); assay: co-immunoprecipitation with TS1/18 (anti-LFA-1) and Western blot; Jurkat T cells and cotransfected HEK293T cells

binding (LFA-1 (human) (human) [1]): binds
binding (LFA-1 (human) (human) [2]): binds
Substance: TAGLN2 (transgelin-2) (from UniProt P37802 1-199)
